Results are given in words; binding and its absence hold for the method and conditions named. For part of these data: In cells and extracts the contact can be indirect. Some entries that bind do so weakly or less than the wild type.
Legend:
[1] = biological target: Flag-tagged wild-type MSI1 (MSI1-wt) stably expressed in 05MG cells (human) (UniProt O43347); test: LC-MS/MS of the MSI1 immunoprecipitate from the cytosolic fraction of 05MG cells (normoxia or hypoxia)
[2] = biological target: Polyadenylate-binding protein 1 (Homo sapiens) (UniProt P11940); test: immunoprecipitation of FlagMSI1 from 05MG cells, hypoxia 0 or 24 h, immunoblot
[3] = biological target: recombinant His-tagged AGO2 protein (human Argonaute 2, baculovirus-expressed) (human) (UniProt Q9UKV8); test: pull-down of recombinant MSI1 constructs with recombinant AGO2, IP:AGO2, IB:His-ab
[4] = biological target: recombinant His-tagged AGO2 protein (human Argonaute 2, baculovirus-expressed) (human) (UniProt Q9UKV8); test: in vitro binding assay with purified proteins
[5] = biological target: recombinant His-tagged AGO2 protein (human Argonaute 2, baculovirus-expressed) (human) (UniProt Q9UKV8); test: in vitro pull-down of purified His-AGO2 and Flag-MSI1 with anti-AGO2 antibody
[6] = biological target: recombinant His-tagged AGO2 protein (human Argonaute 2, baculovirus-expressed) (human) (UniProt Q9UKV8); test: in vitro pull-down of purified His-AGO2 and Flag-MSI1 with anti-AGO2 antibody, immunoblot
[7] = biological target: recombinant His-tagged AGO2 protein (human Argonaute 2, baculovirus-expressed) (human) (UniProt Q9UKV8); test: pull-down assay with recombinant MSI1 and AGO2 proteins

By UniProt entry, the sequences of proteins in these tests, tags left out. Where a name states a change or a piece, a line headed by the entry shows the natural chain unless it says otherwise. Chains listed by the source or under a name are the forms on record and can include a tag or linker. Residues count along the entry.
UniProt O43347: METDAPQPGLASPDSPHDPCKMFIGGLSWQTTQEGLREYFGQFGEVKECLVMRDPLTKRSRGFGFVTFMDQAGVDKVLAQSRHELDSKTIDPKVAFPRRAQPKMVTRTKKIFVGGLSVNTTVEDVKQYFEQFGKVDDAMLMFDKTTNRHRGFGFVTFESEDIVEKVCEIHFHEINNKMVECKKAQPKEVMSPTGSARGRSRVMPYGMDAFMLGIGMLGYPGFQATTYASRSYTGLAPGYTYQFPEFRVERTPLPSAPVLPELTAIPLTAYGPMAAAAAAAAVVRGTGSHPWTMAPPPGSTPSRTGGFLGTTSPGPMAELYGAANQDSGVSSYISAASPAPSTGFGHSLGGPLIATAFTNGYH
UniProt P11940: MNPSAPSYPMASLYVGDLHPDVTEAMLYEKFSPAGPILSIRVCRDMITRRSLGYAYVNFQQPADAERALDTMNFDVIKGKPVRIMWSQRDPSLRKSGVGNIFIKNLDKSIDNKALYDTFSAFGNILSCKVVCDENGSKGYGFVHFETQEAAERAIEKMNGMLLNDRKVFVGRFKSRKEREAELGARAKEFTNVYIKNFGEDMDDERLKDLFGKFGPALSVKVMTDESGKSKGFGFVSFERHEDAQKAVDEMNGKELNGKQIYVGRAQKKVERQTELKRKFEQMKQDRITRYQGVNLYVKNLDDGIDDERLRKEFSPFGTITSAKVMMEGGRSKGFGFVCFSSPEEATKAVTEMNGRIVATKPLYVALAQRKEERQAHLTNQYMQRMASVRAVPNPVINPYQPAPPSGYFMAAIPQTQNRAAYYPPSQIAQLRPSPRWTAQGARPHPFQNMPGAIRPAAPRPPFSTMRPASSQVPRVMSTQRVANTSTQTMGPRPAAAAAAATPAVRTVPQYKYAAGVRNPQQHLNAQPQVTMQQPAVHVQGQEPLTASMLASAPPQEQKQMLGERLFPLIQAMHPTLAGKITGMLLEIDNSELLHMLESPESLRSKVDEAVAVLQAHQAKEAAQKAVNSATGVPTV
recombinant His-tagged AGO2 protein (human Argonaute 2, baculovirus-expressed) (Q9UKV8, form named): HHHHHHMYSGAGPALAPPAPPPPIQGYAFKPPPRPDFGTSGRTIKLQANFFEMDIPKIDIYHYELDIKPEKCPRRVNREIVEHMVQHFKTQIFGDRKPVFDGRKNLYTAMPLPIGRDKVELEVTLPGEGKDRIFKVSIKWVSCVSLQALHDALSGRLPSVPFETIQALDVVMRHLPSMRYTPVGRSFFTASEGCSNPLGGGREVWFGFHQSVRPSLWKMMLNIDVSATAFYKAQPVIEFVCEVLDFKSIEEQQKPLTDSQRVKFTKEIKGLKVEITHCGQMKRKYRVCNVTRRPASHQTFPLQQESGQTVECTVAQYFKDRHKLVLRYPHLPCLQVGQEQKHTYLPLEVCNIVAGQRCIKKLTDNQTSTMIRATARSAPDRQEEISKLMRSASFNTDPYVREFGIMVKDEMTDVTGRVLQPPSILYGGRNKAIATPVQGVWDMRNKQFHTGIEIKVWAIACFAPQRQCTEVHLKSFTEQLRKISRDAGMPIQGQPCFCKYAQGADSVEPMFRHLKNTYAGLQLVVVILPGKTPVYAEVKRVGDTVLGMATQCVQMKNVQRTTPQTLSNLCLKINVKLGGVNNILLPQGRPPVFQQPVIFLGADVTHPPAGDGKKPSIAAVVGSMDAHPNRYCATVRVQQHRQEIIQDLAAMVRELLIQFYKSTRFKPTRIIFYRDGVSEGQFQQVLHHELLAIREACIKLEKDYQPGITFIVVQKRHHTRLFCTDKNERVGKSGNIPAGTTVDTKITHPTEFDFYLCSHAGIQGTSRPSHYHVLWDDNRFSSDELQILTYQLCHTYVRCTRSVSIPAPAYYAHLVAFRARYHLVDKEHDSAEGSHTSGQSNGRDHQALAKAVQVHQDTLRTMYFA
UniProt Q14152, residues 2-1382: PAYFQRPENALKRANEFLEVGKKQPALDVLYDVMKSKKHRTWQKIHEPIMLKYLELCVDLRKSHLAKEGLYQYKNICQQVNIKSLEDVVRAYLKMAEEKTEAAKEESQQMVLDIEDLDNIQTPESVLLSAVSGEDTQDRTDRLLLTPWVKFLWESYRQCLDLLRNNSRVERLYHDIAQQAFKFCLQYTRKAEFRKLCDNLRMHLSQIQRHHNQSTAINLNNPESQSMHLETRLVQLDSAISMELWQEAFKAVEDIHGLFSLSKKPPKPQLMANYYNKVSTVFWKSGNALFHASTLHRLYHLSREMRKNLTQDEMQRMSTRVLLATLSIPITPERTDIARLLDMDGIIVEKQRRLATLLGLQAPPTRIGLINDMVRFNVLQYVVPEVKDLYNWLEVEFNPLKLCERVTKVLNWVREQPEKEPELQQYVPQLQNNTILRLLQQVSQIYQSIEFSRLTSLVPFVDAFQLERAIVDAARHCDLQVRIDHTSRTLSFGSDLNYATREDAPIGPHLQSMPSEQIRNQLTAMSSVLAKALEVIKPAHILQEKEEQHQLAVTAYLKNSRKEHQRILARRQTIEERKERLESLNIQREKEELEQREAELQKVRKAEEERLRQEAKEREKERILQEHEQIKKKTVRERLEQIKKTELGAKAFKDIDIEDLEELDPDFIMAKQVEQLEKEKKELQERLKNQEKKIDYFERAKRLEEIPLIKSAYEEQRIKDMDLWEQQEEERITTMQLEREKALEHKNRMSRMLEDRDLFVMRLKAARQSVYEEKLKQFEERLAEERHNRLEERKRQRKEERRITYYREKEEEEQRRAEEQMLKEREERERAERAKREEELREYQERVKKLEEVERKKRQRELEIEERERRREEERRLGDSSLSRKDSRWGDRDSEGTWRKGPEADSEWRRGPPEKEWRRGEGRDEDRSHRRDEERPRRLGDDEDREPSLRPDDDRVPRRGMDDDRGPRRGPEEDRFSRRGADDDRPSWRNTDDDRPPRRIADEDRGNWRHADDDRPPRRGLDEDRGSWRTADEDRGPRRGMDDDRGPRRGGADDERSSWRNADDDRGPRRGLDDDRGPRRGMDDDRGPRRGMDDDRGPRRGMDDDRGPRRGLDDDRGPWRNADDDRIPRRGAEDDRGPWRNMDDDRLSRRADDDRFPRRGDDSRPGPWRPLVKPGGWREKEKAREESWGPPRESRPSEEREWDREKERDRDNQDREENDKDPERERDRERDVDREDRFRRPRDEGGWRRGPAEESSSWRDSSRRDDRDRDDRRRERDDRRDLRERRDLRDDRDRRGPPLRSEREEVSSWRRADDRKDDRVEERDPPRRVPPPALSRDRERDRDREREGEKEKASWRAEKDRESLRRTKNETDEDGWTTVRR

Substance: Eukaryotic translation initiation factor 3 subunit A (from UniProt Q14152)
- binding [1]: binds

Substance: Flag-tagged wild-type MSI1 (MSI1-wt) stably expressed in 05MG cells (from UniProt O43347 1-362)
- binding [2]: binds

Substance: Polyadenylate-binding protein 1 (from UniProt P11940)
- binding [1]: binds

Substance: purified C-terminal domain of MSI1 (recombinant) (from UniProt O43347 187-362)
- binding [3]: binds
- binding [4]: binds

Substance: recombinant Flag-tagged MSI1 protein (human Musashi-1, full-length, baculovirus-expressed) (from UniProt O43347 1-362)
- binding [3]: binds
- binding [5]: binds
- binding [6]: binds
- binding [7]: binds

From US20200078441A1
